# Laboratory results: the supplement of paper PMC8728848
# The other results are listed elsewhere or left out.
# B1: FliC (Clostridium difficile) (protein)
# chain: MRVNTNVSALIANNQMGRNVNGQSKSMEKLSSGVRIKRAADDAAGLAISEKMRAQIKGLDQAGRNVQDGISVVQTAEGSLEETGNILQRMRTLSLQSANEINNTEEREKIADELTQLKDEIERISSSTEFNGKKLLDGTSSTIRLQVGASYGTNVSGTSNNNNEIKIQLVNTASIMASAGITTASIGSMKAGGTTGTDAAKTMVSSLDAALKSLNSSRAKLGAQQNRLESTQNNLNNTLENVTAAESRIRDTDVASEMVNLSKMNILVQASQSMLAQANQQPQGVLQLLG
# How the values were obtained:
# Assay in all cases: glycan array binding signal (z-score within array); higher = stronger binding
# Settings in all cases: glycan notation: IUPAC condensed, linker removed
# [1] = molecular target: Gal(b1-3)GlcNAc(b1-3)Gal(b1-4)GlcNAc(b1-3)Gal(b1-4)GlcNAc(b1-2)[Gal(b1-3)GlcNAc(b1-3)Gal(b1-4)GlcNAc(b1-3)Gal(b1-4)GlcNAc(b1-6)]Man(a1-6)[Gal(b1-3)GlcNAc(b1-3)Gal(b1-4)GlcNAc(b1-3)Gal(b1-4)GlcNAc(b1-2)Man(a1-3)]Man(b1-4)GlcNAc(b1-4)[Fuc(a1-6)]GlcNAc
# Method in brief: (§1)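 From the Consortium for Functional Glycomics database, 3228 arrays were curated, keeping only those whose protein sequence was available. Binding is given as a within-array Z-score averaged across arrays sharing a protein sequence and across linkers. Negative Z-scores can be read as non-binding.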
# [2] = molecular target: Gal(b1-3)GlcNAc(b1-3)Gal(b1-4)GlcNAc(b1-6)[Gal(b1-3)GlcNAc(b1-3)]Gal(b1-4)Glc
# Method in brief: as §1
# [3] = molecular target: Gal(b1-3)GlcNAc(b1-3)Gal(b1-4)[Fuc(a1-3)]GlcNAc
# Method in brief: as §1
# [4] = molecular target: Gal(b1-3)GlcNAc(b1-3)Gal(b1-4)[Fuc(a1-3)]GlcNAc(b1-6)[Gal(b1-3)GlcNAc(b1-3)]Gal(b1-4)Glc
# Method in brief: as §1
# [5] = molecular target: Gal(b1-3)GlcNAc(b1-3)GalNAc
# Method in brief: as §1
# [6] = molecular target: Gal(b1-3)GlcNAc(b1-6)Gal(b1-4)GlcNAc
# Method in brief: as §1
# [7] = molecular target: Gal(b1-3)GlcNAc(b1-6)GalNAc
# Method in brief: as §1
# [8] = molecular target: Gal(b1-3)GlcNAc(b1-6)[Gal(b1-3)]GalNAc
# Method in brief: as §1
# [9] = molecular target: Gal(b1-3)GlcNAc6S
# Method in brief: as §1
# [10] = molecular target: Gal(b1-3)[Fuc(a1-4)]GlcNAc
# Method in brief: as §1
# [11] = molecular target: Gal(b1-3)[Fuc(a1-4)]GlcNAc(b1-2)Man
# Method in brief: as §1
# [12] = molecular target: Gal(b1-3)[Fuc(a1-4)]GlcNAc(b1-2)Man(a1-3)[Gal(b1-3)[Fuc(a1-4)]GlcNAc(b1-2)Man(a1-6)]Man(b1-4)GlcNAc(b1-4)[Fuc(a1-6)]GlcNAc
# Method in brief: as §1
# [13] = molecular target: Gal(b1-3)[Fuc(a1-4)]GlcNAc(b1-3)Gal(b1-3)[Fuc(a1-4)]GlcNAc
# Method in brief: as §1
# [14] = molecular target: Gal(b1-3)[Fuc(a1-4)]GlcNAc(b1-3)Gal(b1-4)[Fuc(a1-3)]GlcNAc
# Method in brief: as §1
# [15] = molecular target: Gal(b1-3)[Fuc(a1-4)]GlcNAc(b1-6)GalNAc
# Method in brief: as §1
# [16] = molecular target: Gal(b1-3)[GlcNAc(b1-6)]GalNAc
# Method in brief: as §1
# [17] = molecular target: Gal(b1-3)[Neu5Ac(a2-6)]GalNAc
# Method in brief: as §1
# [18] = molecular target: Gal(b1-3)[Neu5Ac(a2-6)]GlcNAc(b1-4)Gal(b1-4)Glc
# Method in brief: as §1
# [19] = molecular target: Gal(b1-3)[Neu5Ac(b2-6)]GalNAc
# Method in brief: as §1
# [20] = molecular target: Gal(b1-4)Gal
# Method in brief: as §1
# [21] = molecular target: Gal(b1-4)GalNAc(a1-3)[Fuc(a1-2)]Gal(b1-4)GlcNAc
# Method in brief: as §1
# [22] = molecular target: Gal(b1-4)GalNAc(b1-3)[Fuc(a1-2)]Gal(b1-4)GlcNAc
# Method in brief: as §1
# [23] = molecular target: Gal(b1-4)Glc
# Method in brief: as §1
# [24] = molecular target: Gal(b1-4)Glc6S
# Method in brief: as §1
# [25] = molecular target: Gal(b1-4)GlcNAc
# Method in brief: as §1
# [26] = molecular target: Gal(b1-4)GlcNAc(a1-6)Gal(b1-4)GlcNAc
# Method in brief: as §1
# [27] = molecular target: Gal(b1-4)GlcNAc(b1-2)Man
# Method in brief: as §1
# [28] = molecular target: Gal(b1-4)GlcNAc(b1-2)Man(a1-3)Man(b1-4)GlcNAc(b1-4)GlcNAc
# Method in brief: as §1
# [29] = molecular target: Gal(b1-4)GlcNAc(b1-2)Man(a1-3)[Gal(b1-4)GlcNAc(b1-2)Man(a1-6)]Man(b1-4)GlcNAc(b1-4)GlcNAc
# Method in brief: as §1
# [30] = molecular target: Gal(b1-4)GlcNAc(b1-2)Man(a1-3)[Gal(b1-4)GlcNAc(b1-2)Man(a1-6)]Man(b1-4)GlcNAc(b1-4)[Fuc(a1-6)]GlcNAc
# Method in brief: as §1
# [31] = molecular target: Gal(b1-4)GlcNAc(b1-2)Man(a1-3)[Gal(b1-4)GlcNAc(b1-2)Man(a1-6)][Gal(b1-4)GlcNAc(b1-4)]Man(b1-4)GlcNAc(b1-4)[Fuc(a1-6)]GlcNAc
# Method in brief: as §1
# [32] = molecular target: Gal(b1-4)GlcNAc(b1-2)Man(a1-3)[Gal(b1-4)GlcNAc(b1-2)Man(a1-6)][GlcNAc(b1-4)]Man(b1-4)GlcNAc(b1-4)[Fuc(a1-6)]GlcNAc
# Method in brief: as §1
# [33] = molecular target: Gal(b1-4)GlcNAc(b1-2)Man(a1-3)[GlcNAc(b1-2)Man(a1-6)]Man(b1-4)GlcNAc(b1-4)GlcNAc
# Method in brief: as §1
# [34] = molecular target: Gal(b1-4)GlcNAc(b1-2)Man(a1-3)[GlcNAc(b1-4)][Gal(b1-4)GlcNAc(b1-2)Man(a1-6)]Man(b1-4)GlcNAc(b1-4)GlcNAc
# Method in brief: as §1
# [35] = molecular target: Gal(b1-4)GlcNAc(b1-2)Man(a1-3)[Man(a1-6)]Man(b1-4)GlcNAc(b1-4)GlcNAc
# Method in brief: as §1
# [36] = molecular target: Gal(b1-4)GlcNAc(b1-2)Man(a1-6)Man(b1-4)GlcNAc(b1-4)GlcNAc
# Method in brief: as §1
# [37] = molecular target: Gal(b1-4)GlcNAc(b1-2)Man(a1-6)[GlcNAc(b1-2)Man(a1-3)]Man(b1-4)GlcNAc(b1-4)GlcNAc
# Method in brief: as §1
# [38] = molecular target: Gal(b1-4)GlcNAc(b1-2)Man(a1-6)[Man(a1-3)]Man(b1-4)GlcNAc(b1-4)GlcNAc
# Method in brief: as §1
binder,measurement,setting,value
B1,glycan array binding signal (z-score),[1],0.909
same,glycan array binding signal (z-score),[2],0.051
same,glycan array binding signal (z-score),[3],0.006
same,glycan array binding signal (z-score),[4],-0.583
same,glycan array binding signal (z-score),[5],-0.058
same,glycan array binding signal (z-score),[6],-0.868
same,glycan array binding signal (z-score),[7],-0.574
same,glycan array binding signal (z-score),[8],-0.034
same,glycan array binding signal (z-score),[9],-0.373
same,glycan array binding signal (z-score),[10],-0.094
same,glycan array binding signal (z-score),[11],1.21
same,glycan array binding signal (z-score),[12],1.04
same,glycan array binding signal (z-score),[13],-0.337
same,glycan array binding signal (z-score),[14],0.088
same,glycan array binding signal (z-score),[15],0.961
same,glycan array binding signal (z-score),[16],-0.461
same,glycan array binding signal (z-score),[17],-0.147
same,glycan array binding signal (z-score),[18],-0.467
same,glycan array binding signal (z-score),[19],0.302
same,glycan array binding signal (z-score),[20],-0.511
same,glycan array binding signal (z-score),[21],-0.227
same,glycan array binding signal (z-score),[22],-0.515
same,glycan array binding signal (z-score),[23],0.396
same,glycan array binding signal (z-score),[24],-0.272
same,glycan array binding signal (z-score),[25],-0.24
same,glycan array binding signal (z-score),[26],-0.175
same,glycan array binding signal (z-score),[27],-0.102
same,glycan array binding signal (z-score),[28],-0.407
same,glycan array binding signal (z-score),[29],0.049
same,glycan array binding signal (z-score),[30],-0.215
same,glycan array binding signal (z-score),[31],-0.812
same,glycan array binding signal (z-score),[32],-0.641
same,glycan array binding signal (z-score),[33],-0.238
same,glycan array binding signal (z-score),[34],-0.312
same,glycan array binding signal (z-score),[35],-0.698
same,glycan array binding signal (z-score),[36],0.137
same,glycan array binding signal (z-score),[37],-0.929
same,glycan array binding signal (z-score),[38],0.554

# A stretch from the list above:
binder,measurement,setting,value
B1,glycan array binding signal (z-score),[29],0.049
same,glycan array binding signal (z-score),[30],-0.215
same,glycan array binding signal (z-score),[31],-0.812
same,glycan array binding signal (z-score),[32],-0.641
same,glycan array binding signal (z-score),[33],-0.238
same,glycan array binding signal (z-score),[34],-0.312
same,glycan array binding signal (z-score),[35],-0.698
same,glycan array binding signal (z-score),[36],0.137
same,glycan array binding signal (z-score),[37],-0.929
